Assay [1] deals with Syngap1 (mouse, endogenous, TurboID-HA knock-in) (mouse (endogenous in forebrain)) (UniProt F6SEU4). As to the kind of experiment: proximity labelling.
For assay [2], the target named is T1, Anks1b (mouse, endogenous, TurboID-HA knock-in) (mouse (endogenous in forebrain)) (UniProt Q8BIZ1).
T1 sequence: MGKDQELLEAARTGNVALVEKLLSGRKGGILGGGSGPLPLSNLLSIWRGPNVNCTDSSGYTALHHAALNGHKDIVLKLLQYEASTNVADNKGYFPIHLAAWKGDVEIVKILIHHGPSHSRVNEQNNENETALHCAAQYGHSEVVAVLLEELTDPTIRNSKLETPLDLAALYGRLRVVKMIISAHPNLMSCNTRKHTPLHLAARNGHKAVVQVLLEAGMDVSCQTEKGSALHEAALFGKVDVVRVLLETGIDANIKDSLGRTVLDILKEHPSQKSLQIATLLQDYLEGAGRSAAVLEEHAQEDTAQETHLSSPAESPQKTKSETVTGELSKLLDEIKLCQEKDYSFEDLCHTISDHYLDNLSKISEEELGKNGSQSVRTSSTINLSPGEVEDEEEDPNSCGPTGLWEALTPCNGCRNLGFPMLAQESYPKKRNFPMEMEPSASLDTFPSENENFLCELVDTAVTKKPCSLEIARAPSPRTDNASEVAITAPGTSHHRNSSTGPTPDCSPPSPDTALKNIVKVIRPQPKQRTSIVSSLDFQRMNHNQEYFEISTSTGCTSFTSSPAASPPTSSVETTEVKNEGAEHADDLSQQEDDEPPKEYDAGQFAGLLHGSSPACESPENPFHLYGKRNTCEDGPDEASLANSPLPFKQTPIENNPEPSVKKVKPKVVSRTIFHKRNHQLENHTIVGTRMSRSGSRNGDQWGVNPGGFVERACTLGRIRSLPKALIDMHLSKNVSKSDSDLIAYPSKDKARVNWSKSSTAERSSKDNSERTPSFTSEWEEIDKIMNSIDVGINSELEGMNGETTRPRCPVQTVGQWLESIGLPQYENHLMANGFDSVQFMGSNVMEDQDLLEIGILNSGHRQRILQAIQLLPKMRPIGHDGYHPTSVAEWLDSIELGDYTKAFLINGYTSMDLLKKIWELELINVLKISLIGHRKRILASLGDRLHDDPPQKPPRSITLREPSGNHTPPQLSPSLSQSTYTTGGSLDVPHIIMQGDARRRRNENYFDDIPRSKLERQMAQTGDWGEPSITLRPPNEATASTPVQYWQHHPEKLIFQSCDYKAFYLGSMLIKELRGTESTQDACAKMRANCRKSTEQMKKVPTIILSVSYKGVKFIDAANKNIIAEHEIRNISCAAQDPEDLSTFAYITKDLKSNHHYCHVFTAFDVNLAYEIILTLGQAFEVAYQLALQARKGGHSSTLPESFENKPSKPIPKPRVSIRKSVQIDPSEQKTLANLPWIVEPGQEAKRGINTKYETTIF
The assay is described as follows: proximity labelling.

Results are given in words; binding and its absence hold for the method and conditions named. Binding seen in cells or lysates may run through a third protein. These calls come from enrichment with a bait or labelling near it, and not all partners need be listed. For some assays here: Where a sequence is shown, tags or fusion partners need not be part of it.

B1: Cdkl5 (enzyme, UniProt Q3UTQ8 1-938)
chain: MKIPNIGNVMNKFEILGVVGEGAYGVVLKCRHKETHEIVAIKKFKDSEENEEVKETTLRELKMLRTLKQENIVELKEAFRRRGKLYLVFEYVEKNMLELLEEMPNGVPPEKVKSYIYQLIKAIHWCHKNDIVHRDIKPENLLISHNDVLKLCDFGFARNLSEGNNANYTEYVATRWYRSPELLLGAPYGKSVDMWSVGCILGELSDGQPLFPGESEIDQLFTIQKVLGPLPSEQMKLFYSNPRFHGLRFPAVNHPQSLERRYLGILNSVLLDLMKNLLKLDPADRYLTEQCLNHPTFQTQRLLDRSPSRSTKRKPYHVESSTLSNRNQSTKGAALQTHHRSNSKDIQNLSVGLPRAEEGLPANESFLNGNLAGATLSPMHTKTYQASTQPGSSSKDLTNNNIPHLLSPKEAKSKTEFDFNIDTKPSEGPGTKYLKSSTRSQQNRHSFMESSQSKAGTLQPSEKQSRHSYIDTIPQSSRSPSYRTKAKSHGALSDSKSVSNLSEARAQITETNTSRYFPSSCLDLNSPTSPTPTRHTDTRTLLSPSGRNNRNEGTLDSRRTTTRHSKTMEELKLPEHMDSSHSHSLSAPHESFSYGLGYTSPFSSQQRPHRHSMYVTRDKVRAKGLDGSLSIGQGMAARANSLQLLSPQPGEQLPPEMTVARPSVKESSREGASSFHTRQKSEGGVYHDPHSDDGTAPKENRHLYNDPVPRRVGSFYRVPSPRPDNSFHENNVSTRVSSLPSDSSSGTNHSKRQPGFDPWKSPENISHADQLKEKEKQGFFRSMKKKKKKTQTVPNTDGPDLLTLQKAIHSSSTASSRPKEWRPEKLSDLQTQSQPLKSLRKLLHLSSSTNHPASSDPRFQPLTAQQAKNSFSEIRIHPLSQATGGSSNIRQEPTPKGRPALQLPGSSLLRYNGWKHSRSRSSQPDEVIFLASHEKWKQ
With B1, the binding result in assay [1] and in assay [2] was “binds” in each case.

Source of the values: doi:10.1101/2022.10.06.511211.
